The other results are listed elsewhere or left out.
Compound: CN1CC[C@H](c2c(O)cc(O)c3c(=O)cc(-c4ccccc4Cl)oc23)[C@H](O)C1 [alvocidib]
Assay: log2 fold change, soluble protein after heating vs DMSO (PISA); higher = thermal stabilisation; K562 lysate, 10 uM; active = over 0.2 and 3.5 SD of the protein, either way, in both replicates (recomputed)
Method in brief: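 The values are log-two fold changes in thermal stability compared with solvent controls and come from duplicates. They were obtained by TMTpro 16plex LC-MS/MS, with channel sums equalised, on the supernatant after 21,000xg for 90 min. That supernatant came from crude K562 extract at 1 mg/mL protein treated with 10 μM compound for 30 min, heated for 3 min across 48°C-58°C, pooled and brought to 0.5% NP-40 at 4°C.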

Chains of the proteins cited; added tags and fusions are not shown. Lines headed by an entry give the natural chain unless they say otherwise; changes in a name come on top.
UniProt P49720: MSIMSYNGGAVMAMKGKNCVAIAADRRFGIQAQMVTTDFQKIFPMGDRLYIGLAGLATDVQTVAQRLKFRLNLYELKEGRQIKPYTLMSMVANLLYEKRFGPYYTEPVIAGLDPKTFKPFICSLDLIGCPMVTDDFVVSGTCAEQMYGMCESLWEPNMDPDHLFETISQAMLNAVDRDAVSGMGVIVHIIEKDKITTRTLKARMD
UniProt Q9UNM6: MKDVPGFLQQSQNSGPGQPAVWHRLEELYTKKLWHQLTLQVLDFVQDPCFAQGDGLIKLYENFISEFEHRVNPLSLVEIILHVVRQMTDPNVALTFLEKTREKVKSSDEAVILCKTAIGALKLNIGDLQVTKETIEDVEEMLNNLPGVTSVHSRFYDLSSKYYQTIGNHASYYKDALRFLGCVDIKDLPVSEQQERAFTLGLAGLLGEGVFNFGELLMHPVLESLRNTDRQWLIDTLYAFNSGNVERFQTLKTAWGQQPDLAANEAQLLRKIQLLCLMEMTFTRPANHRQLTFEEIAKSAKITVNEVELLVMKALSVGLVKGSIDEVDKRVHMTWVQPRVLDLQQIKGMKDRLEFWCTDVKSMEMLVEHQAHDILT
UniProt P60484: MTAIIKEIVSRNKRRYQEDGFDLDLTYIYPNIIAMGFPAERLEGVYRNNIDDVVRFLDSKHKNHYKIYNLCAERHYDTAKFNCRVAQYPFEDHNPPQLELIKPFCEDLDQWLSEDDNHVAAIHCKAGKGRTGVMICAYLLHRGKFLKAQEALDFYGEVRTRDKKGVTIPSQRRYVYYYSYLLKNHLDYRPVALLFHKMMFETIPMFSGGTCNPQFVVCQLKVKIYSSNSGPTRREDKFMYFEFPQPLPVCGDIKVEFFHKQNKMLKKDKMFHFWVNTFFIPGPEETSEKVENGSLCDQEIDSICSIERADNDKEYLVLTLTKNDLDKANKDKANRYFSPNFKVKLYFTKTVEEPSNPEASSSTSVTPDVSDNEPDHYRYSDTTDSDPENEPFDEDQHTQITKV
UniProt Q9BRX8: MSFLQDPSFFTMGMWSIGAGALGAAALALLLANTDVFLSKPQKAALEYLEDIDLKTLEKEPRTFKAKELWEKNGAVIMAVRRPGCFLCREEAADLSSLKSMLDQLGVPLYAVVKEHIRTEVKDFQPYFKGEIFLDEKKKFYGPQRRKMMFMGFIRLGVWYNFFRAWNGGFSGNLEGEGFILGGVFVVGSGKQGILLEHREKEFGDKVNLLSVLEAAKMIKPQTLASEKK
UniProt P20962: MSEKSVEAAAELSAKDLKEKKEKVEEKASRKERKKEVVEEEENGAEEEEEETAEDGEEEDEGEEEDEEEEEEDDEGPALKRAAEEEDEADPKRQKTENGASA
UniProt Q16378: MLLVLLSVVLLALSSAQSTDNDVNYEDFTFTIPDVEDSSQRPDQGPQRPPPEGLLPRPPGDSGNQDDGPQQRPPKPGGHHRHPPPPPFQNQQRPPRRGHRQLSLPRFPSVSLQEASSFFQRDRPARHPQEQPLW
UniProt Q9ULL5: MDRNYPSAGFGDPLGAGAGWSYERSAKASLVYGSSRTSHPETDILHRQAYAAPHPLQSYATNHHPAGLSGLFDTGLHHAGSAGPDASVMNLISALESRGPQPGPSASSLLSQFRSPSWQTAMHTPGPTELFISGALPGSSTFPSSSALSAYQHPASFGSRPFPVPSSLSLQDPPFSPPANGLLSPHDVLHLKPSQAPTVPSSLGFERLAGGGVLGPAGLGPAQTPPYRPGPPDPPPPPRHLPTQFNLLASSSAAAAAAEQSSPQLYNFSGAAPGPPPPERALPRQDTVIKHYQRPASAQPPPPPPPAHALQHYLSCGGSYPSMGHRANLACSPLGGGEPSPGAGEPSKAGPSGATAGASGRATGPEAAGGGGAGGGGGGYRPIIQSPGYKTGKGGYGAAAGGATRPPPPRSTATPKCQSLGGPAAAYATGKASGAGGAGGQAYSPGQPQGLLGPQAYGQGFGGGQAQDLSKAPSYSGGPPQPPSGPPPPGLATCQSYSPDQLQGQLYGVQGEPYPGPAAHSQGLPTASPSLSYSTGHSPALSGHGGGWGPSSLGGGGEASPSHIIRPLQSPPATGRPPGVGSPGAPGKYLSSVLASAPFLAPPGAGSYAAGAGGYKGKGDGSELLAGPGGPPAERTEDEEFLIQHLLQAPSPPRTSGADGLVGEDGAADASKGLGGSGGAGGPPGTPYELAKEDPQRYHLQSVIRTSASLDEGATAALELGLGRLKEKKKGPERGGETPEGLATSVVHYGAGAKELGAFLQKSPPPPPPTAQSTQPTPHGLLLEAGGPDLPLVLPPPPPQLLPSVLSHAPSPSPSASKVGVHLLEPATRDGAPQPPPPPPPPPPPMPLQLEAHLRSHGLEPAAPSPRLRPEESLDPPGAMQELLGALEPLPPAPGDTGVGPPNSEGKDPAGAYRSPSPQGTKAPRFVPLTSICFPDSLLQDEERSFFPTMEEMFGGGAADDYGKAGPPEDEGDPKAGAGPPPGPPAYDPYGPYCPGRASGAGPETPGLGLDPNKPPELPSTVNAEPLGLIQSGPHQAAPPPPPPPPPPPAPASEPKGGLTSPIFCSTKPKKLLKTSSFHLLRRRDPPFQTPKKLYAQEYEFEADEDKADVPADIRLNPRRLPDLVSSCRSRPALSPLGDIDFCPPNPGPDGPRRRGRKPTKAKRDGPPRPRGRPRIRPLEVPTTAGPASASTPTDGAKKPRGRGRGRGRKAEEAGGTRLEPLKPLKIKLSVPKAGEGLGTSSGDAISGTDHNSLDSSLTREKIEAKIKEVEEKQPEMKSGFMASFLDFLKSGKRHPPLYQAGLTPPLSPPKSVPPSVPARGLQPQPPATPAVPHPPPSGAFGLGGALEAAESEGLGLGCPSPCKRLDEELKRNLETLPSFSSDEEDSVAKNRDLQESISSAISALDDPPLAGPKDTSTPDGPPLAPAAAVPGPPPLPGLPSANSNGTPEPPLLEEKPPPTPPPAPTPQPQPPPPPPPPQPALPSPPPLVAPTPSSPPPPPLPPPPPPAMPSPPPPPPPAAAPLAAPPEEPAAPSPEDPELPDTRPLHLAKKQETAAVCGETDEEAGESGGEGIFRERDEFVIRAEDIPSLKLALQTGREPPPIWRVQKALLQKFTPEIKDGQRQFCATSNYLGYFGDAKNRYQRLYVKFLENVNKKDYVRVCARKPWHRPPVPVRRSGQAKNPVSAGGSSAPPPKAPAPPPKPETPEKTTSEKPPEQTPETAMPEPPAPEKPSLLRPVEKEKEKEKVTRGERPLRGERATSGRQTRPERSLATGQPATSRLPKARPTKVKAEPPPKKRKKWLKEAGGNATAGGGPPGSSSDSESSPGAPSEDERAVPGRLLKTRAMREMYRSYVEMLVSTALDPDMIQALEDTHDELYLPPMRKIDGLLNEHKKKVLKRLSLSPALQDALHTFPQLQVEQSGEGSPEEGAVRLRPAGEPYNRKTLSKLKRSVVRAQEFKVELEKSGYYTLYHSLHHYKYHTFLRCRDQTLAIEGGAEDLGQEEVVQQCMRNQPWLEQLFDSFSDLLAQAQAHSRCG
UniProt O00487, whole entry, looked up: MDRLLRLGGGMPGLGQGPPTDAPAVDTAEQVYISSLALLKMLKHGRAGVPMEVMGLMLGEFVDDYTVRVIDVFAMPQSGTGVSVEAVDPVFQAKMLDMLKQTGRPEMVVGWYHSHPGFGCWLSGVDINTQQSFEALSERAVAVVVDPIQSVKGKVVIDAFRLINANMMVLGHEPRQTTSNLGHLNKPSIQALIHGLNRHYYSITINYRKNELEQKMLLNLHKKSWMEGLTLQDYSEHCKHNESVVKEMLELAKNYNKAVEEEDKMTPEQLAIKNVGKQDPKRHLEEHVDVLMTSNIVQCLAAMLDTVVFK
UniProt P28062: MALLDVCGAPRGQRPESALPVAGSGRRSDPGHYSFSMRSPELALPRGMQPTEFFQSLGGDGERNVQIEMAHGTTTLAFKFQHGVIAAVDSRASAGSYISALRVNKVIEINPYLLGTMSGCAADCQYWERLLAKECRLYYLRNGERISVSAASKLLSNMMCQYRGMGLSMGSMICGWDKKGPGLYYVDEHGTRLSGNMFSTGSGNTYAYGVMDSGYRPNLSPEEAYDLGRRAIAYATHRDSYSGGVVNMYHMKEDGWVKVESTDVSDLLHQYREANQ
UniProt P35236: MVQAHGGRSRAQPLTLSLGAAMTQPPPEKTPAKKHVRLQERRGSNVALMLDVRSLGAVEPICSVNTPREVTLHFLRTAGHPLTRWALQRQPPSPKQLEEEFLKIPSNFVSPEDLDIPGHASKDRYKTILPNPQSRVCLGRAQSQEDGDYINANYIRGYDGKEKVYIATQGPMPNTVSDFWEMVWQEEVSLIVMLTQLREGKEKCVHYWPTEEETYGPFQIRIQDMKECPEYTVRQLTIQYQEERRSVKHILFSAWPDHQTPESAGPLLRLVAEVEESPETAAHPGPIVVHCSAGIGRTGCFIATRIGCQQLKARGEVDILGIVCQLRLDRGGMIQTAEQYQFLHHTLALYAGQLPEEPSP
UniProt P48634: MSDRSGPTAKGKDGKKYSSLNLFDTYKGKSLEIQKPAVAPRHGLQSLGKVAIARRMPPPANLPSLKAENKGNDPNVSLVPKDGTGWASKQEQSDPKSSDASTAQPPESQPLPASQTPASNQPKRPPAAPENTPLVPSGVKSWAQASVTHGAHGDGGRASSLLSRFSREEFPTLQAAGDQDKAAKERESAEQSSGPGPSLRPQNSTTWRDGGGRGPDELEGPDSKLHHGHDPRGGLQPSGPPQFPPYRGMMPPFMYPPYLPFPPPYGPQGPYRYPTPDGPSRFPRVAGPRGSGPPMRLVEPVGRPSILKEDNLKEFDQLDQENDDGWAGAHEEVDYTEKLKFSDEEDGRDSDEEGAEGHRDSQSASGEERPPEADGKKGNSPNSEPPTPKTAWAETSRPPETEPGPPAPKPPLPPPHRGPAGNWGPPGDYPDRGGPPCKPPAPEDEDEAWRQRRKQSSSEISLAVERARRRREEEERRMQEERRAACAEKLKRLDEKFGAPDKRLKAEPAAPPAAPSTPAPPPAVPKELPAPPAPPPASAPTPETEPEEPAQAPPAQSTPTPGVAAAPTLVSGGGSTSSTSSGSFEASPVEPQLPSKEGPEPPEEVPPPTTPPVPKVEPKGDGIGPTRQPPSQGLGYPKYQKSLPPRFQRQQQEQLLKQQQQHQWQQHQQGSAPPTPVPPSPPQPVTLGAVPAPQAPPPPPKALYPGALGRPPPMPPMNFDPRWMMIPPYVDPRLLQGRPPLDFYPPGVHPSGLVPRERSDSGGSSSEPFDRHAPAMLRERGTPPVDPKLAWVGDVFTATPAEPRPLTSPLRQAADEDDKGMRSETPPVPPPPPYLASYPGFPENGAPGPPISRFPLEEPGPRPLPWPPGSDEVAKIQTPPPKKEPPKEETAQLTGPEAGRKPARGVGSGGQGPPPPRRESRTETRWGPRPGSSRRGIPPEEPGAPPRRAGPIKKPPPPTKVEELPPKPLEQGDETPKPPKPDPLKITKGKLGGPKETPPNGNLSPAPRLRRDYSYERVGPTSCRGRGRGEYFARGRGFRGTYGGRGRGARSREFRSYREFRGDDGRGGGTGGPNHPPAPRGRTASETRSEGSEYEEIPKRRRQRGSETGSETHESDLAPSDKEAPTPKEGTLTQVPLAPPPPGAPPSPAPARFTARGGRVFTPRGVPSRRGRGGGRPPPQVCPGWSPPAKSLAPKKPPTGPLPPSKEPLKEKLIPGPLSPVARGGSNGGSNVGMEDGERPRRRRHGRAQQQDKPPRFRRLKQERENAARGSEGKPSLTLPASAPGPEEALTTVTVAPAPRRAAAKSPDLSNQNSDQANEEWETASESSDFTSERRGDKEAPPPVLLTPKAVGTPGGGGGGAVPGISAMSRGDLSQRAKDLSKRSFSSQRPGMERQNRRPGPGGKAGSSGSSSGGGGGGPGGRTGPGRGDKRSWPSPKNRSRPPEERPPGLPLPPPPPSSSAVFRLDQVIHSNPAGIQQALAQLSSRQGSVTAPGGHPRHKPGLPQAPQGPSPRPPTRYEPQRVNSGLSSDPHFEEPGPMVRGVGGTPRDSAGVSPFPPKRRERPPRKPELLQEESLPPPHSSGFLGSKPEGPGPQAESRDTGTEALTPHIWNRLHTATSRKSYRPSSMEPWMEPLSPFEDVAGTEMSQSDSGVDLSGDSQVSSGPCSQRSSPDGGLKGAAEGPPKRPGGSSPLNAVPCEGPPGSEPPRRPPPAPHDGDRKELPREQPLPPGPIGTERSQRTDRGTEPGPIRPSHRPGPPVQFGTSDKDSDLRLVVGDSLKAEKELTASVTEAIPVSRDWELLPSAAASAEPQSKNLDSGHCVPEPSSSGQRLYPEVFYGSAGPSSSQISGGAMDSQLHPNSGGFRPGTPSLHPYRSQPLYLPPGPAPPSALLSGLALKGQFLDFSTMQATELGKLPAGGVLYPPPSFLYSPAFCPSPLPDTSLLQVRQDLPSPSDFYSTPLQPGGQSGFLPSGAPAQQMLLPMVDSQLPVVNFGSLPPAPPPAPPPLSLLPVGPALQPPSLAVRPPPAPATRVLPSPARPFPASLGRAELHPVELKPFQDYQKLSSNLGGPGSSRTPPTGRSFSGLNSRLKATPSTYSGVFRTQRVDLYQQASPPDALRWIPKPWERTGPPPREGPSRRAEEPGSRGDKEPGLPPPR

log2 fold change, inactive:
PTRH1 (UniProt Q86Y79) -0.155
PRSS21 (UniProt Q9Y6M0) -0.04
PSMB3 (UniProt P49720) -0.008
PTPA isoform 2 (UniProt Q15257) -0.037
PSMD13 (UniProt Q9UNM6) 0.021
PSMF1 (UniProt Q5QPM7) -0.088
PTPRF (UniProt P10586) -0.024
PTEN isoform 2 (UniProt P60484) 0.167
PRSS8 (UniProt Q16651) 0.028
PTK2 (UniProt Q05397) 0.02
PSME3 isoform 2 (UniProt P61289) -0.007
PSME2 (UniProt Q9UL46) -0.12
PUM2 (UniProt Q8TB72) -0.031
PRXL2A (UniProt Q9BRX8) -0.004
PSMB2, A0A087WVV1 -0.302
PRPH isoform 2 (UniProt P41219) 0.062
PTMS (UniProt P20962) -0.003
PTBP3 isoform 4 (UniProt O95758) 0.027
PTCD3 (UniProt Q96EY7) 0.018
PRR4 (UniProt Q16378) -0.033
PSMD4 (UniProt Q5VWC4) 0.018
PRR12 (UniProt Q9ULL5) 0.04
PRR14L (UniProt Q5THK1) 0.082
PUF60 isoform 2 (UniProt Q9UHX1) 0.223
PSMD14 (UniProt O00487) 0.029
PRSS50 (UniProt Q9UI38) -0.013
PTOV1 (UniProt Q86YD1) -0.051
PTPRJ (UniProt Q12913) -0.059
PSMB10 (UniProt P40306) 0.008
PWWP2B (UniProt Q6NUJ5) -0.004
PSMB8 (UniProt P28062) -0.043
PSIP1 (UniProt V9GYT7) -0.025
PSEN2 (UniProt P49810) -0.014
PTPN7 isoform 3 (UniProt P35236) -0.082
PRRC2A (UniProt P48634) -0.006
PSMA7 (UniProt H0Y586) 0.142

For reference, some entries already given.
log2 fold change, inactive:
PRXL2A (UniProt Q9BRX8) -0.004
PSMB2, A0A087WVV1 -0.302
